Test results as given in publication PMC12126530.

The chains behind the UniProt entries cited, without tags or fusion partners. Where a name states a change or a piece, a line headed by the entry shows the natural chain unless it says otherwise. Residues count along the entry.
UniProt P11142: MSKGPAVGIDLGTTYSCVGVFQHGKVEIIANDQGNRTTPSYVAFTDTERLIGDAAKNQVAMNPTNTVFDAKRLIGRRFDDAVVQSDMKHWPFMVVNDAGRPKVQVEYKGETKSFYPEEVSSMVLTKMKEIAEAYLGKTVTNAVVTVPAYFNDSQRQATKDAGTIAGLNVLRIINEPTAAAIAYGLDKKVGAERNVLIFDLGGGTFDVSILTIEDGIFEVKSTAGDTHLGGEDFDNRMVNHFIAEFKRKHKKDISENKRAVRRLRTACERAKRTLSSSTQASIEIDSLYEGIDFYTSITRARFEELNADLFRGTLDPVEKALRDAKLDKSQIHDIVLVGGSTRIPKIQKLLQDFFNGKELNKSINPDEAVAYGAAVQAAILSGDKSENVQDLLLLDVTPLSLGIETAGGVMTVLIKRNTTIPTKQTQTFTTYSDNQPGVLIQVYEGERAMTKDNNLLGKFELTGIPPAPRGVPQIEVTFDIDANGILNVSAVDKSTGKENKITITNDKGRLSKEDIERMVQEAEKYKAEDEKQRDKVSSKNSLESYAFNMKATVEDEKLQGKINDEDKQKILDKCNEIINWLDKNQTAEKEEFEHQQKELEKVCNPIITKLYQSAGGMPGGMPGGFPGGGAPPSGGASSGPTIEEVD
UniProt P25685, residues 1-110: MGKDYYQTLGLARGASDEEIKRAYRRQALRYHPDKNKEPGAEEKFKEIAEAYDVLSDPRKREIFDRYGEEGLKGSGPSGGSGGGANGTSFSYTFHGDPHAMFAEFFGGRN

Biological target: β-stranded Hsc70 SBD subdomain (SBDβ) (human) (UniProt P11142)
Assay: NMR titration; unlabelled SBDβ added to labelled DNAJB1 JD-GF-α5; ratio of the resonance intensities in the apo versus the SBDβ bound samples; 25 °C; both purified

For “DNAJB1 JD-GF-α5 (from UniProt P25685 1-110) (domain or fragment)”, the binding was “binds”.

Results are given in words; binding and its absence hold for the method and conditions named. Binding can be weak; no strength is given.
